Measurements taken from the supplement of paper PMC10849652.
The list shows a part of the results.

Amino acid sequences for entries named in this document (tags omitted). A change or cut given only in a name is not applied to a line headed by its entry.
UniProt Q8IW75: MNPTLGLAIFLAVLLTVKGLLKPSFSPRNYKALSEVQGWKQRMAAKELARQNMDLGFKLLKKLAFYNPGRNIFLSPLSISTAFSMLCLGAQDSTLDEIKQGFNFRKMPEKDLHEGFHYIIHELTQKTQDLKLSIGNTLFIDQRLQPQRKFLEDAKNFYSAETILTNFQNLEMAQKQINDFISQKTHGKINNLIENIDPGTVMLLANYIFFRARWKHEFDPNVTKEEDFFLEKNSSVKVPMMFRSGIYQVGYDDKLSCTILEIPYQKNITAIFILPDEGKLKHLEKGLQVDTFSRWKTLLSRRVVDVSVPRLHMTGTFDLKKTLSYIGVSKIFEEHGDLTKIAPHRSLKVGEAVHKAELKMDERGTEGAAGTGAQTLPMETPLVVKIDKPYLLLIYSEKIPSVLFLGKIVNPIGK
UniProt Q15464: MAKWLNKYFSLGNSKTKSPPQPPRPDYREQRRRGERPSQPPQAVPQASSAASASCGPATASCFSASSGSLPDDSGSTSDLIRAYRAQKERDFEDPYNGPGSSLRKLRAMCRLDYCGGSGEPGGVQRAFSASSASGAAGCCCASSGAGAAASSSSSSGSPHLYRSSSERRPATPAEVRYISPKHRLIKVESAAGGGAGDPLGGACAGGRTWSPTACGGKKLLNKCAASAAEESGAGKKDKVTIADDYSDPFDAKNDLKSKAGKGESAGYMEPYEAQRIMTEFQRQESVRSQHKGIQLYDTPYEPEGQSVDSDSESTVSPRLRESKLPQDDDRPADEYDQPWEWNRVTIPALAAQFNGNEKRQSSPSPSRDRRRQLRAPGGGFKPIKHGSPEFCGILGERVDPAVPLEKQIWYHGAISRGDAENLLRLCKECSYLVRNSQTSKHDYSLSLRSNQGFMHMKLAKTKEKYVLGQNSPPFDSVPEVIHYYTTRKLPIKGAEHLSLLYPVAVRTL
UniProt Q9NRX5: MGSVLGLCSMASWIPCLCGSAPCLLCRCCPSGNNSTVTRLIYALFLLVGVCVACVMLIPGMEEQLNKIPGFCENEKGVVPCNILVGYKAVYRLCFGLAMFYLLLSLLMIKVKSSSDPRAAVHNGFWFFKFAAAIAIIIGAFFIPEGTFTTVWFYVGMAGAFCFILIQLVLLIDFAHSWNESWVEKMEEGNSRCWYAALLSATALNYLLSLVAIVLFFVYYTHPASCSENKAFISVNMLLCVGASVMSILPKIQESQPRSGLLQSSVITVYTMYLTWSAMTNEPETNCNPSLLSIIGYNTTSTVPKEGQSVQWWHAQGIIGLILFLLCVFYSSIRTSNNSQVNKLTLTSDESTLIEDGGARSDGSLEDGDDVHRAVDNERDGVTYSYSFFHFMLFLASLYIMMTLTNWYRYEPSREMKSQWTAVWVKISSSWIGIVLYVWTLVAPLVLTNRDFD
UniProt Q02383: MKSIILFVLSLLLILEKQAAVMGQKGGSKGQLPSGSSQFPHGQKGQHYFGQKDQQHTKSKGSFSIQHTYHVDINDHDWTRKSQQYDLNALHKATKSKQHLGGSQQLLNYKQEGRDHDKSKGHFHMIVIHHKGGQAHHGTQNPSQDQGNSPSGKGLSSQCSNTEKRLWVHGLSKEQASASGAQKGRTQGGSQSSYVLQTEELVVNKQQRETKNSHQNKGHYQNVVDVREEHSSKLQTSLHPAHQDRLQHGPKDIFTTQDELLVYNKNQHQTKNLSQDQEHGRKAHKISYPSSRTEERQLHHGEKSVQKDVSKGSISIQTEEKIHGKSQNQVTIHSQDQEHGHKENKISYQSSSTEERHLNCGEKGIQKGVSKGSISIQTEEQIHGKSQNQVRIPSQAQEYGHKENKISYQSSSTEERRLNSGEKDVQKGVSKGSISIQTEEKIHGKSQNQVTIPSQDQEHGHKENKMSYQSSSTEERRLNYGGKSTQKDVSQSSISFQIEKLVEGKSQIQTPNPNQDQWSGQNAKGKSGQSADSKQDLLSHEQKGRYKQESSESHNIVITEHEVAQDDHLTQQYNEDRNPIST
UniProt P36952: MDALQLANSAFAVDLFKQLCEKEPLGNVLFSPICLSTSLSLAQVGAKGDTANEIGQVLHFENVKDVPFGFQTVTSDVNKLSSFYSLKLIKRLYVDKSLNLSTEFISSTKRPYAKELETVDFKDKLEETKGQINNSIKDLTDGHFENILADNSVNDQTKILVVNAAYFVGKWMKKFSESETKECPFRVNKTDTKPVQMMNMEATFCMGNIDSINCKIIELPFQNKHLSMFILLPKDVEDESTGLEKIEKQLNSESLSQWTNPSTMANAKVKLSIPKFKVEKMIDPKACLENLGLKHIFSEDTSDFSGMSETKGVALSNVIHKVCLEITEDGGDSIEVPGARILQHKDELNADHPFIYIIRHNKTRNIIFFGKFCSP
UniProt Q9UPX8: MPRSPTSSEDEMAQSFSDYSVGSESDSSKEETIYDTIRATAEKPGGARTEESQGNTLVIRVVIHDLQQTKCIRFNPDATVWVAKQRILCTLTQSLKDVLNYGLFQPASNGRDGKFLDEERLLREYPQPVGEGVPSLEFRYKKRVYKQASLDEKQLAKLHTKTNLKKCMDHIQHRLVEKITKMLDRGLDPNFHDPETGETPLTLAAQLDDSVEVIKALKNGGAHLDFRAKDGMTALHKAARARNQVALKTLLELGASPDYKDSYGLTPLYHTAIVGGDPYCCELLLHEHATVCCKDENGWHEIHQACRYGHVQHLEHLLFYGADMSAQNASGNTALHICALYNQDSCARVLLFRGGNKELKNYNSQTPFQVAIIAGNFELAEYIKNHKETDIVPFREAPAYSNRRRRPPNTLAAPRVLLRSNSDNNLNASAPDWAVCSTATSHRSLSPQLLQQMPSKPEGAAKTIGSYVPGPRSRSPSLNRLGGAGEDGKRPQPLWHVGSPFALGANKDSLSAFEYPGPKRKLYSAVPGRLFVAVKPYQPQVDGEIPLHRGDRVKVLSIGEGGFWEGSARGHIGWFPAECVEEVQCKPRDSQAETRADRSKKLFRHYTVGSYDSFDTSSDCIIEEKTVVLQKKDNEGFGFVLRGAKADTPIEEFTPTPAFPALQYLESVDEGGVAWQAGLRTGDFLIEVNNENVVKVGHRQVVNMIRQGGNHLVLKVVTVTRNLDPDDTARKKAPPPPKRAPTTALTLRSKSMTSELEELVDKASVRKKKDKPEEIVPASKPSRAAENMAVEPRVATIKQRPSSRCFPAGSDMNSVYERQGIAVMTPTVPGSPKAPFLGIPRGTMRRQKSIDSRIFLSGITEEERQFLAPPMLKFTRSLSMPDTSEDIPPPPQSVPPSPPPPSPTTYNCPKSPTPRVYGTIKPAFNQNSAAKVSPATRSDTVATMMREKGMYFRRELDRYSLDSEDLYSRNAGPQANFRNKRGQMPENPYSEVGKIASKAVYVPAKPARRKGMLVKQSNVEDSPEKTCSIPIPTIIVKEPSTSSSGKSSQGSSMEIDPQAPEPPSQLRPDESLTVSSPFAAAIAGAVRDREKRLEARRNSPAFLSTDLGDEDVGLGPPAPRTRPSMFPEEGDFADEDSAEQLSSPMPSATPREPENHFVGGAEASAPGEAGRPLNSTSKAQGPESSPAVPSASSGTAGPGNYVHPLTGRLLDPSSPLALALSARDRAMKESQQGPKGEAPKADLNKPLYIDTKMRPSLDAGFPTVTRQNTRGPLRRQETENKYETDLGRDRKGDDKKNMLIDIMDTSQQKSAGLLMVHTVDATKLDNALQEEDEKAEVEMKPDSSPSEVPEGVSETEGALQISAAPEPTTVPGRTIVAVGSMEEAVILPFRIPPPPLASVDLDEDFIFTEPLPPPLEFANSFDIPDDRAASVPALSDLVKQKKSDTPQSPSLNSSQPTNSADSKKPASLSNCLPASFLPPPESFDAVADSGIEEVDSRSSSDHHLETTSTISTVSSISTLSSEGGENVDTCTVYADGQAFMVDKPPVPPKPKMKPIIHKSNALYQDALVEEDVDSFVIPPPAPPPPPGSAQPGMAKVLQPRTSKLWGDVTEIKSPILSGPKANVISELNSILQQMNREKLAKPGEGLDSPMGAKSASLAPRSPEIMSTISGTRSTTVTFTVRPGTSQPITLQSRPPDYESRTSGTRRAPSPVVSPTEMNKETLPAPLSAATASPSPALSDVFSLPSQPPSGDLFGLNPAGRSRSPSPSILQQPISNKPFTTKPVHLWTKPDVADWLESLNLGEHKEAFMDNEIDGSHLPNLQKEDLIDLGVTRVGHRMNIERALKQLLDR
UniProt P58004: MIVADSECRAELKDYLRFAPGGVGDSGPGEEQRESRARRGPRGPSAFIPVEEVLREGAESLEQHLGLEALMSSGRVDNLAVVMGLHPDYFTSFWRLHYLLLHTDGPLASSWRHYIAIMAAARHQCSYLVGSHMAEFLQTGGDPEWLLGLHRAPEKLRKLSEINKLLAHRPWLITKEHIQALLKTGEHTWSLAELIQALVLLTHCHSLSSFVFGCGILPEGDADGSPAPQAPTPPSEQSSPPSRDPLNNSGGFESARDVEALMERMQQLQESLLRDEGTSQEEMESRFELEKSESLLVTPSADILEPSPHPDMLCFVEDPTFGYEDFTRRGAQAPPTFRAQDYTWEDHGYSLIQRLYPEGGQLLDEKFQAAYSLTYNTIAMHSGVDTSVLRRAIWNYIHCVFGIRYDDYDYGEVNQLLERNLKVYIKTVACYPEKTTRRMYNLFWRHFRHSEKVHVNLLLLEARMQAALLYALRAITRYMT
UniProt P60059: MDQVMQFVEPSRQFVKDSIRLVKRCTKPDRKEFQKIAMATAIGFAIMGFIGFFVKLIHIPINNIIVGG
UniProt P84101: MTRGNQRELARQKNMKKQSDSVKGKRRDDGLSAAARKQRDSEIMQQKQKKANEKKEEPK
UniProt P49908, whole entry, looked up: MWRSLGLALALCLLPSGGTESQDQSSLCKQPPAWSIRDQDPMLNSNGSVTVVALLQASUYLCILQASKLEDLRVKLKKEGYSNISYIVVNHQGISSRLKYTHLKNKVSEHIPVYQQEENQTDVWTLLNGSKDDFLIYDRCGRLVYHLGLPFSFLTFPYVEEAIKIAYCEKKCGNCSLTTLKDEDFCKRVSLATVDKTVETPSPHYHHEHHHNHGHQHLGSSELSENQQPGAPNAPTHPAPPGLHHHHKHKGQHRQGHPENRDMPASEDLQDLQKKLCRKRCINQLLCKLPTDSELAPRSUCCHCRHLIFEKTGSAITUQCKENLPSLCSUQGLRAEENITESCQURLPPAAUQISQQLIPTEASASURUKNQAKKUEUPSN
UniProt Q8N196: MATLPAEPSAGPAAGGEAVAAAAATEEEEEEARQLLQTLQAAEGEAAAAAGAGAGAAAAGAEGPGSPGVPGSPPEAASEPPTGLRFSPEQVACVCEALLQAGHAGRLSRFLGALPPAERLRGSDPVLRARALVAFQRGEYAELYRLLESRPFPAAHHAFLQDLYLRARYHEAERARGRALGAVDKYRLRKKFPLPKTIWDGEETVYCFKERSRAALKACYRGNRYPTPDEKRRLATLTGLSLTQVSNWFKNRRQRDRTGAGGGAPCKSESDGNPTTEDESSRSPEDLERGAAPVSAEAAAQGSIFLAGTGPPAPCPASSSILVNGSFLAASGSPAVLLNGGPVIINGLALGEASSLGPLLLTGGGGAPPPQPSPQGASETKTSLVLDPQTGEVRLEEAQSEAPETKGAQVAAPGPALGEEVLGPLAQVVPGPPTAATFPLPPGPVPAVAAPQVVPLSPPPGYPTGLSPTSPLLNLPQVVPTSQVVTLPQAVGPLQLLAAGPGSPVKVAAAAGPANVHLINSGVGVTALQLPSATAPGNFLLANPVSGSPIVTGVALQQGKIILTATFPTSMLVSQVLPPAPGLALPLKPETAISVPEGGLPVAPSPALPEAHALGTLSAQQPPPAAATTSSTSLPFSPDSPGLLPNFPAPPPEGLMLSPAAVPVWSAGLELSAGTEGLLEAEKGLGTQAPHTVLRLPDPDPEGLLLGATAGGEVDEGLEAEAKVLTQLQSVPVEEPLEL
UniProt P62341, whole entry, looked up: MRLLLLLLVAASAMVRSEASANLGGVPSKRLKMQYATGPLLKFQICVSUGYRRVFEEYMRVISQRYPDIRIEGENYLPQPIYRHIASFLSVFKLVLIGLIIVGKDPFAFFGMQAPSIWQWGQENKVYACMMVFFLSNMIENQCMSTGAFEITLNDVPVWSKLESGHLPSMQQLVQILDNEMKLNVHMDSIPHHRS
UniProt Q9NP50: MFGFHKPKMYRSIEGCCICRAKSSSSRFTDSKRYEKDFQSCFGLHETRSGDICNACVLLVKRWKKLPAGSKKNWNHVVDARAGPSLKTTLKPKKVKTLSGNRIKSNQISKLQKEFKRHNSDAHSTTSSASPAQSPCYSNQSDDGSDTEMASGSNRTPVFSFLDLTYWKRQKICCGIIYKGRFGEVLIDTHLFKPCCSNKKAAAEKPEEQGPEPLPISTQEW
UniProt O14796: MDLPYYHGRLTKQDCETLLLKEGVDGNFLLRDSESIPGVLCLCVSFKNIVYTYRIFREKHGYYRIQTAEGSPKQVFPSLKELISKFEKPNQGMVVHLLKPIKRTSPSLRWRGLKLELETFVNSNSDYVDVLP
UniProt Q9Y6D0, whole entry, looked up: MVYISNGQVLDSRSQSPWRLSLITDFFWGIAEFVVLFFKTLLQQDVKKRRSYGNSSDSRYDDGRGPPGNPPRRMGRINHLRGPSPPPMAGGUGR

Columns and labels:
Assay in all cases: log2 fold change, soluble protein after heating vs DMSO (PISA); higher = thermal stabilisation; K562 cells, 10 uM, 30 min; active = over 0.2 and 3.5 SD of the protein, either way, in both replicates (recomputed)
[1] = compound: CS(=O)(=O)c1ccc(-c2cnc(N)c(C(=O)Nc3ccccc3)n2)cc1
In short: (§1)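 K562 cells at 2×10^6 cells/mL were exposed to 10 μM compound for 30 min, then aliquots were heated for 3 min across 48°C-58°C, pooled, and extracted in PBS containing 0.5% NP-40 at 4°C. The supernatant after 21,000xg for 90 min was taken as soluble protein and measured by TMTpro 16plex LC-MS/MS with channel sums equalised. Thermal stability is reported relative to control samples, with values from duplicates. Fold changes are given on a log2 scale.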

[2] = compound: C[C@@H](Oc1cc(-c2cnn(C3CCNCC3)c2)cnc1N)c1c(Cl)ccc(F)c1Cl [crizotinib]
In short: as §1

[3] = compound: C[C@@H]1COCCN1C2=NC(=NC(=C2)C3(CC3)S(=O)(=O)C)C4=C5C=CNC5=CC=C4
In short: as §1

[4] = compound: C[C@H](C1=CC=C(C=C1)C(=O)NC2=C3C=CNC3=NC=C2)N
In short: as §1

[5] = compound: Cc1cc(Nc2cc(CN3CCOCC3)c3nc(C)c(Cc4ccc(Cl)cc4F)n3n2)n[nH]1 [gandotinib]
In short: as §1

[6] = compound: Cc1cc(SCc2sc(-c3ccc(C(F)(F)F)cc3)nc2C)ccc1OCC(=O)O
In short: as §1

[7] = compound: Cc1ccc(-n2nc(C(C)(C)C)cc2NC(=O)Nc2ccc(OCCN3CCOCC3)c3ccccc23)cc1 [doramapimod]
In short: as §1

[8] = compound: Cc1ccc(NC(=O)c2ccc(CN3CC[C@H](N(C)C)C3)c(C(F)(F)F)c2)cc1Nc1nccc(-c2cncnc2)n1 [bafetinib]
In short: as §1

[9] = compound: Cc1cccc(CC(=O)N2CCc3c2ccc(-c2cn(C)c4ncnc(N)c24)c3F)n1
In short: as §1

[10] = compound: Cc1cn(-c2cc(NC(=O)c3ccc(C)c(Nc4nccc(-c5cccnc5)n4)c3)cc(C(F)(F)F)c2)cn1 [nilotinib]
In short: as §1

[11] = compound: Cc1nc(Nc2n[nH]c3c2CN(C(=O)N[C@H](CN(C)C)c2ccccc2)C3(C)C)c2sccc2n1
In short: as §1

[12] = compound: Cc1nc(Nc2ncc(C(=O)Nc3c(C)cccc3Cl)s2)cc(N2CCN(CCO)CC2)n1 [dasatinib]
In short: as §1

[13] = compound: Cc1ncc(-c2ccnc(Nc3ccc(S(C)(=O)=O)cc3)n2)n1C(C)C
In short: as §1

[14] = compound: Cn1cc(-c2ccc3c(c2)CCN3C(=O)Cc2cccc(C(F)(F)F)c2)c2c(N)ncnc21
In short: as §1

[15] = compound: Cn1cncc1[C@@](N)(c1ccc(Cl)cc1)c1ccc2c(c1)c(-c1cccc(Cl)c1)cc(=O)n2C [tipifarnib]
In short: as §1

[16] = compound: FC(F)(F)c1ccc(/C=C/c2nc(COc3ccc(CCCCn4ccnn4)cc3)co2)cc1 [mubritinib]
In short: as §1

[17] = compound: Cc1ccc(C(=O)N(CCCN)[C@@H](c2nc3cc(Cl)ccc3c(=O)n2Cc2ccccc2)C(C)C)cc1 [ispinesib]
In short: as §1

[18] = compound: Cn1cc(-c2ccc3nnc(C(F)(F)c4ccc5ncccc5c4)n3n2)cn1
In short: as §1

[19] = compound: C[C@H](Nc1ncnc2nc[nH]c12)c1cc2cccc(Cl)c2c(=O)n1-c1ccccc1 [duvelisib]
In short: as §1

[20] = compound: Cc1cc(Nc2cc(N3CCN(C)CC3)nc(Sc3ccc(NC(=O)C4CC4)cc3)n2)n[nH]1 [tozasertib]
In short: as §1

Target	log2 fold change [1]	log2 fold change [2]	log2 fold change [3]	log2 fold change [4]	log2 fold change [5]	log2 fold change [6]	log2 fold change [7]	log2 fold change [8]	log2 fold change [9]	log2 fold change [10]	log2 fold change [11]	log2 fold change [12]	log2 fold change [13]	log2 fold change [14]	log2 fold change [15]	log2 fold change [16]	log2 fold change [17]	log2 fold change [18]	log2 fold change [19]	log2 fold change [20]
SHROOM2 (UniProt Q13796)	inactive: 0.093	inactive: 0.005	inactive: 0.013	inactive: -0.099	inactive: 0.397	inactive: -0.233	inactive: 0.008	inactive: -0.091	inactive: -0.02	inactive: 0.082	inactive: 0.011	inactive: 0.166	inactive: -0.043	inactive: 0.163	inactive: -0.022	inactive: 0.258				
SELENOH (UniProt Q8IZQ5)	inactive: -0.19	inactive: 0	inactive: -0.014	inactive: -0.022	inactive: -0.12	inactive: -0.051	inactive: -0.018	inactive: 0.042	inactive: 0.21	inactive: -0.02	inactive: 0.011	inactive: 0.076	inactive: 0.012	inactive: -0.039	inactive: -0.01	inactive: -0.009	inactive: 0.036	inactive: 0.036		
SERPINA12 (UniProt Q8IW75)	inactive: -0.189		inactive: 0.001			inactive: -0.308				inactive: 0.311	inactive: -0.025	inactive: -0.967	inactive: 0.077			inactive: -0.084			inactive: -0.19	inactive: 0.273
SHB (UniProt Q15464)	inactive: 0.183			inactive: -0.053	inactive: -0.117	inactive: -0.014		inactive: 0.05	inactive: 0.132			inactive: -0.111		inactive: 0.078	inactive: 0.043	inactive: -0.021			inactive: 0.014	inactive: 0.154
SERINC1 (UniProt Q9NRX5)	inactive: 0.075	inactive: -0.197	inactive: 0.037			inactive: -0.016	inactive: 0.068	inactive: -0.135		inactive: 0.121	inactive: 0.081	inactive: -0.034	inactive: -0.064		inactive: -0.112	inactive: 0.057	inactive: -0.048	inactive: 0.054		
SEMG2 (UniProt Q02383)	inactive: -0.058		inactive: 0.096	inactive: -0.021	inactive: -0.032			inactive: -0.089	inactive: 0.016	inactive: -0.083	inactive: 0.056		inactive: 0.003	inactive: 0.008		inactive: -0.044				
SERPINB5 (UniProt P36952)	inactive: 0.079					inactive: 0.211		inactive: 0.736				inactive: -0.692				inactive: -0.166	inactive: 0.007	inactive: 0.332	inactive: 0.075	inactive: 0.038
SH3PXD2B (UniProt A1X283)	inactive: 0.002		inactive: 0.246	inactive: 0.055	inactive: 0.077			active: -0.954	inactive: -0.058	inactive: -0.124	inactive: 0.129		inactive: -0.152	inactive: 0.024		inactive: 0				
SHANK2 isoform 3 (UniProt Q9UPX8)	inactive: 0.14	inactive: 0.046	inactive: 0.027				inactive: -0.094			inactive: 0.061	inactive: 0.044		inactive: -0.037							
SESN2 (UniProt P58004)	inactive: 0.042	inactive: -0.191	inactive: -0.028	inactive: 0.077	inactive: -0.046	inactive: 0.006	inactive: 0.192	inactive: -0.09	inactive: 0.136	inactive: -0.02	inactive: -0.207	inactive: -0.034	inactive: -0.063	inactive: 0.069	inactive: -0.213	inactive: 0.042	inactive: -0.322	inactive: -0.069		
SEPTIN5 (UniProt G3XAH0)	inactive: -0.042		inactive: 0.087	inactive: -0.089	inactive: -0.153	inactive: -0.036		inactive: -0.038	inactive: -0.013	inactive: -0.05	inactive: -0.024	inactive: -0.049	inactive: -0.008	inactive: -0.05	inactive: 0.006	inactive: -0.011	inactive: -0.017	inactive: 0.082		
SEC61G (UniProt P60059)	inactive: 0.091	inactive: 0.175	inactive: 0.094			inactive: 0.094	inactive: -0.102	inactive: 0.067		inactive: 0.057	inactive: 0.034	inactive: -0.154	inactive: -0.001			inactive: 0	inactive: -0.02	inactive: -0.082	inactive: 0.021	
SIK3 (UniProt H0Y4E8)	inactive: -0.144	inactive: 0.084		inactive: 0.027	inactive: 0.118	inactive: -0.056	inactive: -0.058		inactive: -0.122	inactive: -0.053	inactive: -0.179	inactive: -0.037	inactive: 0.003	inactive: -0.016	inactive: 0.251	inactive: -0.035	inactive: 0.185	inactive: 0		
SERF2 (UniProt P84101)	inactive: 0.003		inactive: -0.134	inactive: -0.011	inactive: -0.158	inactive: -0.091		inactive: -0.083	inactive: -0.25	inactive: -0.035	inactive: 0.005	inactive: -0.13	inactive: -0.009	inactive: -0.115		inactive: 0.037	inactive: 0.011	inactive: 0.048	inactive: 0.179	inactive: -0.054
SELENOP (UniProt P49908)	inactive: 0.096	inactive: -0.018					inactive: 0.094	inactive: -0.356								inactive: 0.083				
SIX5 (UniProt Q8N196)		inactive: 0.017		inactive: -0.049	inactive: 0.008	inactive: -0.058	inactive: 0.005	inactive: -0.086	inactive: -0.021			inactive: -0.052		inactive: 0.069		inactive: 0.057	inactive: 0.072	inactive: 0.05	inactive: 0.102	
SELENOT (UniProt P62341)	inactive: 0.005	inactive: 0.004	inactive: -0.018		inactive: -0.304	inactive: 0.025	inactive: 0.04	inactive: -0.046	inactive: -0.042	inactive: 0.094	inactive: -0.027	inactive: 0.05	inactive: 0.008		inactive: -0.057	inactive: 0.078	inactive: -0.014	inactive: 0.088	inactive: 0.077	inactive: -0.064
SINHCAF (UniProt Q9NP50)	inactive: 0.789	inactive: 1.75	inactive: 1.03				inactive: 0.485													
SERPINB6, A0A2R8Y7E5		inactive: -0.167	inactive: -0.158				inactive: -0.045	inactive: 0.414								inactive: -0.147				
SH2D1B (UniProt O14796)	inactive: -0.031	active: -0.765	inactive: 0.075	inactive: -0.201	inactive: -0.692	inactive: -0.08	inactive: -0.072		inactive: 0.018	inactive: -0.421	inactive: -0.319	active: -1.18	inactive: 0.005	inactive: -0.358	inactive: 0.045	inactive: -0.187	inactive: 0.06	inactive: -0.069		
SELENOK (UniProt Q9Y6D0)	inactive: -0.037		inactive: 0.087	inactive: 0.079	inactive: -0.441			inactive: 0.101	inactive: 0.126	inactive: 0.043	inactive: 0.013		inactive: 0.083	inactive: -0.012		inactive: -0.037				inactive: 0.09
SHFL (UniProt Q9NUL5)	inactive: -0.037		inactive: -0.093		inactive: 0.032			inactive: 0.094	inactive: -0.078	inactive: -0.012	inactive: -0.01		inactive: 0.034		inactive: 0.001	inactive: -0.06	inactive: -0.009	inactive: 0.091		inactive: 0.158

Single entries from the entries so far.
For log2 fold change [10], SHANK2 isoform 3 (UniProt Q9UPX8) is entered as inactive: 0.061
For log2 fold change [17], SIX5 (UniProt Q8N196) is entered as inactive: 0.072
